Reference: publication PMC12592420, “A mismatch in enzyme-redox partnerships underlies divergent cytochrome P450 activities between human hepatocytes and microsomes” (Communications Biology, 2025)

How the values were obtained:
[1] = CLint in NADPH-supplemented human liver microsomes; conditions: Fig. 4a,d
Protocol: (§1) Calculation and scaling of CLint,u was done using the equation below and 45 mg of microsomal protein per gram of liver. HLMCLint,u=ln2/x1/t1/2(min)xmLincubation/mgmicrosomalproteinx45mgmicrosomalprotein/gliverx21gliver/kg/Fuinc

[2] = CLint in NADH-supplemented human liver microsomes; conditions: Fig. 4a,d
Protocol: as §1

in vitro [3] = conditions: human, hepatocytes
Protocol: Cryopreserved HH prepared from a mixed-gender pool of twenty donors (product X008000, lot EEO, BIOIVT), ten-donors (product S01205, lot MTJ, BIOIVT), ten donors (product S01205 lot LYB, BIOIVT) were utilised in the experiments. Cryopreserved HH were rapidly thawed in a water bath set at 37 °C and added to Leibovitz media that had been pre-warmed in the water bath. The suspension of cells was mixed gently and centrifuged at 40 × g for 4 min at room temperature. Excess media was removed, and the cells were re-suspended in 5 mL of fresh Leibovitz media. The cells were counted using an automated cell counter (Cellometer).

in vitro [4] = conditions: human, Caco-2
[5] = Intrinsic permeability in Caco-2 cells with efflux inhibited; conditions: human

Compound | microsomal CLint at 1 µM ([1]; pH 7.4, HLM_NADPH CLint, 1 µM, single determination) | CLint scaled at 1 µM ([1]; pH 7.4, NADPH_HLM_scaled_CLint,u) | microsomal CLint at 1 µM ([2]; pH 7.4, HLM_NADH CLint, 1 µM, single determination) | CLint scaled at 1 µM ([2]; pH 7.4, NADH_HLM_scaled_CLint,u) | hepatocyte CLint (in vitro [3]; both, HH_CLint) | CLint scaled (in vitro [3]; HH_scaled_CLint,u) | Papp (in vitro [4]) | Papp at 2 h, 10 µM [5]
CN1C(=O)CN=C(c2ccccc2)c2cc(Cl)ccc21 [Diazepam] | 10.6 µL/min/mg | 14.4 mL/min/kg | 3 µL/min/mg | 4.09 mL/min/kg | 4.62 µL/min/1e6 cells | 16.8 mL/min/kg | 34.2 ×10⁻⁶ cm/s | –
NS(=O)(=O)c1cc(C(=O)O)c(NCc2ccco2)cc1Cl [Furosemide] | – | – | – | – | – | – | – | 1.42 ×10⁻⁶ cm/s
